Test results reported in the supplement of paper PMC7238544.
± gives the standard deviation of the averaged measurements. Some of the results follow. The data scatter; read single values as rough.

Columns and labels:
hAMSC donor 1 [1] = assay: Hoechst total cell count ratio vs vehicle control; higher = more cells (less toxicity)
hAMSC donor 2 [2] = assay: as above
hAMSC donor 1 [3] = assay: transgenic luciferase activity (RLU/mg protein) fold change vs vehicle control (ratio); higher = more transgene expression
hAMSC donor 2 [4] = assay: as above
hAMSC donor 1 [5] = assay: transfection efficiency (EGFP+ cells / Hoechst count) fold change vs vehicle control (ratio); hAMSC are human adipose-derived mesenchymal stem cells given an EGFP-luciferase plasmid by lipofection; higher = enhanced transfection
hAMSC donor 2 [6] = assay: as above
[7] = priming compound concentration 0.2 µM
[8] = priming compound concentration 1.7 µM
[9] = priming compound concentration 13 µM

With `CC(C)c1cccc(C(C)C)c1O` [Propofol] the “Hoechst total cell count ratio” value (hAMSC donor 1 [1]; [7]) was 1.12 ± 0.16, the “Hoechst total cell count ratio” value (hAMSC donor 1 [1]; [8]) was 1.29 ± 0.26 and the “Hoechst total cell count ratio” value (hAMSC donor 1 [1]; [9]) was 1.21 ± 0.087. For the same molecule, the “Hoechst total cell count ratio” value (hAMSC donor 2 [2]; [7]) was 1.1 ± 0.12, the “Hoechst total cell count ratio” value (hAMSC donor 2 [2]; [8]) was 1.08 ± 0.15 and the “Hoechst total cell count ratio” value (hAMSC donor 2 [2]; [9]) was 1.19 ± 0.022. It also gave a transgenic luciferase activity (hAMSC donor 1 [3]; [7]) of 1.52 ± 0.98, a transgenic luciferase activity (hAMSC donor 2 [4]; [7]) of 0.901 ± 0.31 and a transfection efficiency (hAMSC donor 1 [5]; [7]) of 0.63 ± 0.23. The transfection efficiency (hAMSC donor 1 [5]; [8]) was 1.13 ± 0.17, the transfection efficiency (hAMSC donor 1 [5]; [9]) was 1.23 ± 0.29 and the transfection efficiency (hAMSC donor 2 [6]; [7]) was 1.13 ± 0.19. It also gave a transfection efficiency (hAMSC donor 2 [6]; [8]) of 0.816 ± 0.085 and a transfection efficiency (hAMSC donor 2 [6]; [9]) of 0.929 ± 0.11.
In the case of `C[C@H]1CCC[C@H](O)CCCCCc2cc(O)cc(O)c2C(=O)O1` [Zeranol], the “Hoechst total cell count ratio” value (hAMSC donor 1 [1]; [7]) is reported as 1.29 ± 0.17, the “Hoechst total cell count ratio” value (hAMSC donor 1 [1]; [8]) is reported as 1.14 ± 0.16 and the “Hoechst total cell count ratio” value (hAMSC donor 1 [1]; [9]) is reported as 1.15 ± 0.12. For the same molecule, the “Hoechst total cell count ratio” value (hAMSC donor 2 [2]; [7]) was 1.49 ± 0.21, the “Hoechst total cell count ratio” value (hAMSC donor 2 [2]; [8]) was 1.09 ± 0.067 and the “Hoechst total cell count ratio” value (hAMSC donor 2 [2]; [9]) was 1.36 ± 0.091. For the same molecule, the transgenic luciferase activity (hAMSC donor 1 [3]; [9]) was 1 ± 0.15, the transfection efficiency (hAMSC donor 1 [5]; [7]) was 0.909 ± 0.27 and the transfection efficiency (hAMSC donor 1 [5]; [8]) was 0.851 ± 0.17. It also gave a transfection efficiency (hAMSC donor 1 [5]; [9]) of 1.31 ± 0.33, a transfection efficiency (hAMSC donor 2 [6]; [7]) of 0.988 ± 0.11 and a transfection efficiency (hAMSC donor 2 [6]; [8]) of 1.27 ± 0.12. The transfection efficiency (hAMSC donor 2 [6]; [9]) was 0.804 ± 0.084.
With `CC(O)(CS(=O)(=O)c1ccc(F)cc1)C(=O)Nc1ccc(C#N)c(C(F)(F)F)c1` (stereo unspecified) [Bicalutamide] the “Hoechst total cell count ratio” value (hAMSC donor 1 [1]; [7]) was 1.29 ± 0.15, the “Hoechst total cell count ratio” value (hAMSC donor 1 [1]; [8]) was 1.3 ± 0.26 and the “Hoechst total cell count ratio” value (hAMSC donor 1 [1]; [9]) was 1.28 ± 0.028. For the same molecule, the “Hoechst total cell count ratio” value (hAMSC donor 2 [2]; [7]) was 0.835 ± 0.15, the “Hoechst total cell count ratio” value (hAMSC donor 2 [2]; [8]) was 1.33 ± 0.3 and the “Hoechst total cell count ratio” value (hAMSC donor 2 [2]; [9]) was 2.73 ± 0.66. It also gave a transgenic luciferase activity (hAMSC donor 1 [3]; [8]) of 1.08 ± 0.39, a transgenic luciferase activity (hAMSC donor 2 [4]; [7]) of 0.464 ± 0.19 and a transgenic luciferase activity (hAMSC donor 2 [4]; [8]) of 0.794 ± 0.058. For the same molecule, the transgenic luciferase activity (hAMSC donor 2 [4]; [9]) was 0.126 ± 0.041, the transfection efficiency (hAMSC donor 1 [5]; [7]) was 1.03 ± 0.16 and the transfection efficiency (hAMSC donor 1 [5]; [8]) was 1.19 ± 0.74. The transfection efficiency (hAMSC donor 1 [5]; [9]) was 0.687 ± 0.068, the transfection efficiency (hAMSC donor 2 [6]; [7]) was 1.19 ± 0.41 and the transfection efficiency (hAMSC donor 2 [6]; [8]) was 1.01 ± 0.31. It also gave a transfection efficiency (hAMSC donor 2 [6]; [9]) of 0.857 ± 0.046.
For `O=C(O)CCCc1ccc(N(CCCl)CCCl)cc1` [Chlorambucil], the “Hoechst total cell count ratio” value (hAMSC donor 1 [1]; [7]) was 1.24 ± 0.13, the “Hoechst total cell count ratio” value (hAMSC donor 1 [1]; [8]) was 1.26 ± 0.33 and the “Hoechst total cell count ratio” value (hAMSC donor 1 [1]; [9]) was 0.912 ± 0.083. The “Hoechst total cell count ratio” value (hAMSC donor 2 [2]; [7]) was 1.18 ± 0.081, the “Hoechst total cell count ratio” value (hAMSC donor 2 [2]; [8]) was 1.12 ± 0.14 and the “Hoechst total cell count ratio” value (hAMSC donor 2 [2]; [9]) was 0.764 ± 0.042. For the same molecule, the transgenic luciferase activity (hAMSC donor 1 [3]; [9]) was 0.438 ± 0.036, the transgenic luciferase activity (hAMSC donor 2 [4]; [7]) was 0.748 ± 0.14 and the transgenic luciferase activity (hAMSC donor 2 [4]; [9]) was 0.738 ± 0.19. The transfection efficiency (hAMSC donor 1 [5]; [7]) was 0.825 ± 0.2, the transfection efficiency (hAMSC donor 1 [5]; [8]) was 1.16 ± 0.4 and the transfection efficiency (hAMSC donor 1 [5]; [9]) was 1.2 ± 0.36. For the same molecule, the transfection efficiency (hAMSC donor 2 [6]; [7]) was 1.13 ± 0.36, the transfection efficiency (hAMSC donor 2 [6]; [8]) was 0.946 ± 0.087 and the transfection efficiency (hAMSC donor 2 [6]; [9]) was 1.4 ± 0.24.
For `O=P1(N(CCCl)CCCl)NCCCO1` (stereo unspecified) [Cyclophosphamide hydrate], the “Hoechst total cell count ratio” value (hAMSC donor 1 [1]; [7]) was 1.29 ± 0.062, the “Hoechst total cell count ratio” value (hAMSC donor 1 [1]; [8]) was 1.26 ± 0.28 and the “Hoechst total cell count ratio” value (hAMSC donor 1 [1]; [9]) was 1.31 ± 0.1. The “Hoechst total cell count ratio” value (hAMSC donor 2 [2]; [7]) was 1.1 ± 0.023, the “Hoechst total cell count ratio” value (hAMSC donor 2 [2]; [8]) was 1.16 ± 0.012 and the “Hoechst total cell count ratio” value (hAMSC donor 2 [2]; [9]) was 1.41 ± 0.066. The transgenic luciferase activity (hAMSC donor 1 [3]; [9]) was 0.798 ± 0.12, the transgenic luciferase activity (hAMSC donor 2 [4]; [7]) was 0.754 ± 0.15 and the transgenic luciferase activity (hAMSC donor 2 [4]; [9]) was 0.723 ± 0.13. For the same molecule, the transfection efficiency (hAMSC donor 1 [5]; [7]) was 0.773 ± 0.12, the transfection efficiency (hAMSC donor 1 [5]; [8]) was 1.14 ± 0.14 and the transfection efficiency (hAMSC donor 1 [5]; [9]) was 0.918 ± 0.15. For the same molecule, the transfection efficiency (hAMSC donor 2 [6]; [7]) was 1.2 ± 0.18, the transfection efficiency (hAMSC donor 2 [6]; [8]) was 1 ± 0.13 and the transfection efficiency (hAMSC donor 2 [6]; [9]) was 0.853 ± 0.061.
For `O=c1c2ccccc2[se]n1-c1ccccc1` [Ebselen], the “Hoechst total cell count ratio” value (hAMSC donor 1 [1]; [7]) was 1.09 ± 0.03, the “Hoechst total cell count ratio” value (hAMSC donor 1 [1]; [8]) was 1.13 ± 0.1 and the “Hoechst total cell count ratio” value (hAMSC donor 1 [1]; [9]) was 1.04 ± 0.15. For the same molecule, the “Hoechst total cell count ratio” value (hAMSC donor 2 [2]; [7]) was 0.925 ± 0.15, the “Hoechst total cell count ratio” value (hAMSC donor 2 [2]; [8]) was 1.02 ± 0.12 and the “Hoechst total cell count ratio” value (hAMSC donor 2 [2]; [9]) was 1.05 ± 0.34. It also gave a transgenic luciferase activity (hAMSC donor 1 [3]; [7]) of 0.921 ± 0.12, a transgenic luciferase activity (hAMSC donor 2 [4]; [8]) of 0.586 ± 0.084 and a transfection efficiency (hAMSC donor 1 [5]; [7]) of 0.972 ± 0.04. It also gave a transfection efficiency (hAMSC donor 1 [5]; [8]) of 0.61 ± 0.15, a transfection efficiency (hAMSC donor 1 [5]; [9]) of 0.865 ± 0.29 and a transfection efficiency (hAMSC donor 2 [6]; [7]) of 0.988 ± 0.17. The transfection efficiency (hAMSC donor 2 [6]; [8]) was 0.883 ± 0.058 and the transfection efficiency (hAMSC donor 2 [6]; [9]) was 0.969 ± 0.25.
With `CN1C(=O)CN=C(c2ccccc2)c2cc([N+](=O)[O-])ccc21` [Nimetazepam] the “Hoechst total cell count ratio” value (hAMSC donor 1 [1]; [7]) was 1.18 ± 0.21, the “Hoechst total cell count ratio” value (hAMSC donor 1 [1]; [8]) was 1.2 ± 0.28 and the “Hoechst total cell count ratio” value (hAMSC donor 1 [1]; [9]) was 1.01 ± 0.069. For the same molecule, the “Hoechst total cell count ratio” value (hAMSC donor 2 [2]; [7]) was 1.13 ± 0.38, the “Hoechst total cell count ratio” value (hAMSC donor 2 [2]; [8]) was 1.48 ± 0.05 and the “Hoechst total cell count ratio” value (hAMSC donor 2 [2]; [9]) was 0.695 ± 0.16. It also gave a transgenic luciferase activity (hAMSC donor 1 [3]; [7]) of 1.88 ± 1.1, a transgenic luciferase activity (hAMSC donor 2 [4]; [8]) of 0.437 ± 0.11 and a transfection efficiency (hAMSC donor 1 [5]; [7]) of 0.975 ± 0.24. The transfection efficiency (hAMSC donor 1 [5]; [8]) was 0.953 ± 0.17, the transfection efficiency (hAMSC donor 1 [5]; [9]) was 1.15 ± 0.42 and the transfection efficiency (hAMSC donor 2 [6]; [7]) was 1.27 ± 0.27. It also gave a transfection efficiency (hAMSC donor 2 [6]; [8]) of 0.999 ± 0.1 and a transfection efficiency (hAMSC donor 2 [6]; [9]) of 1.26 ± 0.082.
